PubChem BioAssay AID1259415 (National Center for Advancing Translational Sciences (NCATS), 2018)
Out of some 410,000 compounds screened, about 18,000 (4.4%) were called active. The inconclusive results got no clear call from the source; some entries with a clear call stand among them for comparison. Cut-off read from the data, not from the text of the source: active = activity change below about -60%; inconclusive = no clear call, values can overlap the other calls; inactive = above about -39%.

assay: qHTS Assay for inhibitors of the human cytomegalovirus (HCMV); settings: HFF cells, HCMV-luciferase reporter, 72 h; at 57.5 µM; active compounds read low
Outline: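 HFF cells seeded 16 h at 37C, treated with compounds, infected with luciferase-reporter HCMV at MOI 1 PFU/cell; luciferase read at 72 h post infection, normalized to buffer-only and Salinomycin controls.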
% is set by controls: 0 for no effect and ±100 for the full control effect.

**Q.** With O=C(NCCCN1CCN(c2ccccc2F)CC1)C1CCN(S(=O)(=O)c2cccs2)CC1 as the compound, how does the activity change, negative = inhibition read?
**A.** active: -68.3%

**Q.** Which activity change, negative = inhibition does the source give for CC12CC(NC(=O)N1c1cccc(C(=O)N3CCN(c4ccccc4F)CC3)c1)c1ccccc1O2 (stereo not drawn) here?
**A.** inconclusive: -47.4%

**Q.** Which activity change, negative = inhibition does the source give for Cc1ccc(NC(=O)COC(=O)CCc2c[nH]c3ccccc23)cc1 here?
**A.** inactive: 0.031%

**Q.** With C/C(=N\N1CCN(Cc2ccc(Cl)cc2)CC1)c1ccc([N+](=O)[O-])cc1 as the compound, how does the activity change, negative = inhibition read?
**A.** inactive: -24.2%

**Q.** Which activity change, negative = inhibition does the source give for CCc1nnc(NC(=O)c2ccc(S(=O)(=O)N(C)Cc3ccccc3)cc2)o1 here?
**A.** inactive: -30.7%

**Q.** With CC1CCN(S(=O)(=O)c2ccc3c(c2)N(CC(=O)NCCCN2CCCCC2C)C(=O)CS3)CC1 (stereo not drawn) as the compound, how does the activity change, negative = inhibition read?
**A.** inconclusive: -58.5%

**Q.** With O=C(C(=O)N1CCOCC1)c1cn(Cc2ccc(F)cc2)c2ccccc12 as the compound, how does the activity change, negative = inhibition read?
**A.** inconclusive: -42.8%

**Q.** For COC(=O)[C@]1(C)N[C@H](c2ccc(-c3cccc(Cl)c3)c(OC)c2)[C@@H]2C(=O)N(C)C(=O)[C@@H]21, which activity change, negative = inhibition is on record?
**A.** inconclusive: -58.3%

**Q.** With COC(=O)c1ccccc1Oc1c(F)c(F)nc(N2CCOCC2)c1F as the compound, how does the activity change, negative = inhibition read?
**A.** inconclusive: -42.6%

**Q.** Which activity change, negative = inhibition does the source give for Cc1ccc(C)c2c1CCCC2=O here?
**A.** inactive: -19%

**Q.** Which activity change, negative = inhibition does the source give for CC12CC3(C)CC(C)(C1)CC(C(=O)NC1=NCCS1)(C2)C3 here?
**A.** inconclusive: -40.1%

**Q.** With CC(C)C(=O)N1CCN(c2ccc([N+](=O)[O-])cc2Cl)CC1 as the compound, how does the activity change, negative = inhibition read?
**A.** inconclusive: -56%

**Q.** For CCCN(CCC)CCCNc1ccc(C(=O)Nc2cccc(OC)c2)cc1[N+](=O)[O-], which activity change, negative = inhibition is on record?
**A.** inconclusive: -50.5%

**Q.** With COc1ccc(NC(=O)CSc2ccc3nnc(CCNC(=O)c4ccccc4)n3n2)cc1OC as the compound, how does the activity change, negative = inhibition read?
**A.** inactive: -20.7%

**Q.** For CCc1nnc(SCC(=O)N(C)c2ccccc2)c2cc3sccc3n12, which activity change, negative = inhibition is on record?
**A.** active: -66.7%

**Q.** Which activity change, negative = inhibition does the source give for CCN(CC)CCn1c(=N)n(CC(=O)c2ccc(C)cc2)c2ccccc21 here?
**A.** inactive: 140%

**Q.** Which activity change, negative = inhibition does the source give for COC(=O)c1ccc(COc2ccc(F)cc2)o1 here?
**A.** inconclusive: -56.2%

**Q.** For O=c1cc(Nc2ccc3c(c2)OCCO3)[nH]c(=O)n1C1CCCCC1, which activity change, negative = inhibition is on record?
**A.** inactive: 35.9%

**Q.** With CCOC(=O)c1cc(-c2ccccc2)sc1NC(=O)C(C)OC(=O)c1ccncc1 (stereo not drawn) as the compound, how does the activity change, negative = inhibition read?
**A.** inconclusive: -44.2%

**Q.** For Nc1ccc(Cn2ccc3c4c(N)nc(N)nc4ccc32)cc1, which activity change, negative = inhibition is on record?
**A.** active: -99.5%

**Q.** For Cc1ccc(C)c(N2N=C(C(=O)Nc3ccccc3N3CCCC3)CCC2=O)c1, which activity change, negative = inhibition is on record?
**A.** inconclusive: -52.1%

**Q.** Which activity change, negative = inhibition does the source give for CCCS(=O)(=O)NC(=O)C1(C)CCCN(C(=O)c2ccco2)C1 (stereo not drawn) here?
**A.** inactive: 12.3%

**Q.** For COc1cccc(C(=O)c2sc(NC(C)C)nc2N)c1, which activity change, negative = inhibition is on record?
**A.** active: -96.8%

**Q.** For O=C(CCCn1c(=O)c2cccn2c2ccc(F)cc21)NCCc1ccccc1, which activity change, negative = inhibition is on record?
**A.** inconclusive: -47.1%

**Q.** For CN1CCN(S(=O)(=O)c2cccc(C(=O)N(Cc3nnc(-c4ccc(Cl)cc4)o3)C3CC3)c2)CC1, which activity change, negative = inhibition is on record?
**A.** inconclusive: -49.8%

**Q.** Which activity change, negative = inhibition does the source give for COc1ccccc1C(=O)COC(=O)CNS(=O)(=O)c1ccc(C)cc1 here?
**A.** inconclusive: -46.2%

**Q.** Which activity change, negative = inhibition does the source give for CCOC(=O)CSc1nc2ccc(NC(=O)c3ccc(F)cc3)cc2s1 here?
**A.** inactive: 22.4%

**Q.** Which activity change, negative = inhibition does the source give for Cc1cc(-n2c(C)c3c(C)nnc(C)c3c2C)ccc1N here?
**A.** active: -61.8%

**Q.** With Cc1cccc(NC(=O)c2sc(C)nc2C)c1 as the compound, how does the activity change, negative = inhibition read?
**A.** inactive: 101%

**Q.** Which activity change, negative = inhibition does the source give for Cc1[nH]c2ccc(C(=O)NCCCN3CCN(C)CC3)cc2c1C here?
**A.** inactive: 16.5%

**Q.** For COC(=O)c1ccc(COc2ccccc2/C=N/NS(=O)(=O)c2ccccc2)cc1, which activity change, negative = inhibition is on record?
**A.** active: -85.6%

**Q.** With COc1cc(OC)c(OC)cc1CNCCc1cccc(F)c1 as the compound, how does the activity change, negative = inhibition read?
**A.** inactive: -31.4%

**Q.** With NS(=O)(=O)c1ccc(NC(=O)COC(=O)C2(c3ccc(F)cc3)CCCC2)cc1 as the compound, how does the activity change, negative = inhibition read?
**A.** active: -61.5%

**Q.** Which activity change, negative = inhibition does the source give for O=C(Nc1ccc(Cl)cc1)c1csc(C(O)c2cccc(OC(F)(F)F)c2)n1 (stereo not drawn) here?
**A.** inactive: -36.4%

**Q.** Which activity change, negative = inhibition does the source give for CC1CCN(S(=O)(=O)c2ccc(NC(=O)c3ccccc3F)cc2)CC1 here?
**A.** active: -61.9%

**Q.** With CC(=O)Nc1cccc(OCC(=O)/C=C2\N(C)c3ccccc3C2(C)C)c1 as the compound, how does the activity change, negative = inhibition read?
**A.** inconclusive: -52.4%

**Q.** With CCN(CC)C(=O)c1sc2nc(N3CCOCC3)c3c(c2c1N)CCCC3 as the compound, how does the activity change, negative = inhibition read?
**A.** inconclusive: -40.2%

**Q.** With CCCC(=O)NC(=S)Nc1ccc(Cl)cn1 as the compound, how does the activity change, negative = inhibition read?
**A.** active: -68.9%

**Q.** For O=C(OCc1c(-c2ccccc2)ncc2ccccc12)c1ccccc1C(F)(F)F, which activity change, negative = inhibition is on record?
**A.** inactive: -29.1%

**Q.** For COc1ccccc1OCC(=O)Nc1sc2c(c1C(N)=O)CCC2, which activity change, negative = inhibition is on record?
**A.** inactive: -2.97%

**Q.** Which activity change, negative = inhibition does the source give for COc1ccc(NC(=O)CN(C)C2CCCCC2)cc1Cl here?
**A.** inconclusive: -44.4%

**Q.** For COC(=O)c1ccc(CNC(=O)COC(=O)c2cc(Cl)ccc2O)cc1, which activity change, negative = inhibition is on record?
**A.** inconclusive: -43.6%

**Q.** Which activity change, negative = inhibition does the source give for O=C(c1ccccc1)N1CCN(c2ncnc3sc4c(c23)CCC4)CC1 here?
**A.** inconclusive: -52.2%
